Results: publication doi:10.1101/2025.10.21.683613
No constants are given. Whether binding was seen depends on the method and setting. Binding seen in cells or lysates may run through a third protein. Some entries that bind do so weakly or less than the wild type. Sequences can lack the tags named with a protein.

Amino acid sequences for entries named in this document (tags omitted). A change or cut given only in a name is not applied to a line headed by its entry.
UniProt P62258, whole entry: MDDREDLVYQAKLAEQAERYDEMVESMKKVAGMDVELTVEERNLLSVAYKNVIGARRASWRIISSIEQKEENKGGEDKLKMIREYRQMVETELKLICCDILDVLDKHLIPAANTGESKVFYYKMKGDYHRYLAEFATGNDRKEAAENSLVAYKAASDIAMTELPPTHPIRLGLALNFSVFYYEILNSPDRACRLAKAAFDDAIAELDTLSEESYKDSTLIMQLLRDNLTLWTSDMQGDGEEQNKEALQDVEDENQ

How the values were obtained:
Assay in all cases: co-IP
HA-14-3-3ε^WT = HA-14-3-3ε^WT (UniProt P62258)
HA-14-3-3ε^K50/215R = HA-14-3-3ε^K50/215R (UniProt P62258)
[1] = target: HA-14-3-3ε^AAA (E251-253A) (UniProt P62258)

Measured: binding

B1: Flag-RIG-I (protein, UniProt O95786 1-925)
chain: MTTEQRRSLQAFQDYIRKTLDPTYILSYMAPWFREEEVQYIQAEKNNKGPMEAATLFLKFLLELQEEGWFRGFLDALDHAGYSGLYEAIESWDFKKIEKLEEYRLLLKRLQPEFKTRIIPTDIISDLSECLINQECEEILQICSTKGMMAGAEKLVECLLRSDKENWPKTLKLALEKERNKFSELWIVEKGIKDVETEDLEDKMETSDIQIFYQEDPECQNLSENSCPPSEVSDTNLYSPFKPRNYQLELALPAMKGKNTIICAPTGCGKTFVSLLICEHHLKKFPQGQKGKVVFFANQIPVYEQQKSVFSKYFERHGYRVTGISGATAENVPVEQIVENNDIIILTPQILVNNLKKGTIPSLSIFTLMIFDECHNTSKQHPYNMIMFNYLDQKLGGSSGPLPQVIGLTASVGVGDAKNTDEALDYICKLCASLDASVIATVKHNLEELEQVVYKPQKFFRKVESRISDKFKYIIAQLMRDTESLAKRICKDLENLSQIQNREFGTQKYEQWIVTVQKACMVFQMPDKDEESRICKALFLYTSHLRKYNDALIISEHARMKDALDYLKDFFSNVRAAGFDEIEQDLTQRFEEKLQELESVSRDPSNENPKLEDLCFILQEEYHLNPETITILFVKTRALVDALKNWIEGNPKLSFLKPGILTGRGKTNQNTGMTLPAQKCILDAFKASGDHNILIATSVADEGIDIAQCNLVILYEYVGNVIKMIQTRGRGRARGSKCFLLTSNAGVIEKEQINMYKEKMMNDSILRLQTWDEAVFREKILHIQTHEKFIRDSQEKPKPVPDKENKKLLCRKCKALACYTADVRVIEECHYTVLGDAFKECFVSRPHPKPKQFSSFEKRAKIFCARQNCSHDWGIHVKYKTFEIPVIKIESFVVEDIATGVQTLYSKWKDFHFEKIPFDPAEMSK
binds: all assays above
